Taken from: PubChem BioAssay AID1259405 (NCATS, 2018)

- Test: 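Knock-downs that lift recombinant protein yield in hamster ovary cells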 (primary screen)
- Cell system: Chinese hamster CHO-K1 ovary cells with stable secreted eGFP expression
- Knock-down reagent: single siRNA against mouse genes, 0.8 pmol siRNA per well (2 µl of 400 nM stock)
- Time to read-out: 3 days
- Detection: 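Percent of the per-plate non-targeting control median for intracellular GFP per well by laser scanning cytometry and for cell viability by ATP luminescence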
- Reading the numbers: GFP, % of control: higher = more GFP per well, higher productivity; viability (ATP), % of control: higher = more viable cells (more ATP)
- Active means: 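a knock-down is called active if GFP reaches 120% or more of non-targeting control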
In all, the deposit lists about 50,000 reagents; shown is an unselected part. Over the whole deposit, about 4,000 (8%) are marked active. 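Mouse siRNA library applied to hamster cells; one well for each siRNA.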 Reagents against one gene are numbered here.

gene	reagent	GFP, % of control	viability (ATP), % of control	activity call
Mxi1	1	88.5	78.2	inactive
Mxi1	2	60.4	76.9	inactive
Mxi1	3	57.1	86.4	inactive
Cdh11	1	74.5	87.4	inactive
Cdh11	2	91	70.1	inactive
Cdh11	3	65	74.5	inactive
Sycp3	1	90.6	104	inactive
Sycp3	2	101	118	inactive
Sycp3	3	149	141	active
Tdpoz4	1	63.5	71.7	inactive
Tdpoz4	2	107	99.8	inactive
Tdpoz4	3	89.5	88.4	inactive
Arl4d	1	72.7	51.1	inactive
Arl4d	2	44	74.1	inactive
Arl4d	3	69	61.3	inactive
Arl4d	4	53.9	57	inactive
Arl4d	5	57.1	102	inactive
Arl4d	6	98.6	93.2	inactive
Lysmd2	1	122	111	active
Lysmd2	2	62.3	51.4	inactive
Lysmd2	3	68.1	80.9	inactive
Usp17le-ps	1	117	80.7	inactive
Usp17le-ps	2	81.7	47.5	inactive
Usp17le-ps	3	111	75.8	inactive
Cdc42ep5	1	74.2	88.9	inactive
Cdc42ep5	2	104	112	inactive
Cdc42ep5	3	89.6	93.2	inactive
Ctsr	1	110	102	inactive
Ctsr	2	46.3	61.3	inactive
Ctsr	3	85.9	81.4	inactive
Ercc6l	1	56.3	56.7	inactive
Ercc6l	2	66.5	75	inactive
Ercc6l	3	39.8	35.7	inactive
Zfp740	1	71.9	90.6	inactive
Zfp740	2	78.1	86.7	inactive
Zfp740	3	39.6	37.3	inactive
Slc22a8	1	96.3	48.6	inactive
Slc22a8	2	49.5	79.5	inactive
Slc22a8	3	54.6	67	inactive
Or4c101	1	36.5	61	inactive
Or4c101	2	90.6	55.8	inactive
Or4c101	3	67.7	107	inactive
Utp4	1	51	53.6	inactive
Utp4	2	147	151	active
Utp4	3	64.3	103	inactive
Acaa1a	1	68.3	71.9	inactive
Acaa1a	2	100	101	inactive
Acaa1a	3	114	118	inactive
Adamts8	1	75.5	94.9	inactive
Adamts8	2	36	43	inactive
Adamts8	3	89.5	76	inactive
Unc5a	1	55.7	56.8	inactive
Unc5a	2	92.4	47.7	inactive
Unc5a	3	67	126	inactive
Decr1	1	75.3	93.3	inactive
Decr1	2	75.7	51.5	inactive
Decr1	3	61.3	60.2	inactive
Mymk	1	90.9	84.9	inactive
Mymk	2	109	80.4	inactive
Mymk	3	180	98.8	active
Mymk	4	84.7	83.9	inactive
Mymk	5	73.2	66.2	inactive
Mymk	6	91.3	99.6	inactive
Gnl1	1	90.3	83.4	inactive
Gnl1	2	64.1	87.8	inactive
Gnl1	3	88.2	97.1	inactive
Kif3a	1	89.5	81.4	inactive
Kif3a	2	105	75.7	inactive
Amer1	1	59.1	68.7	inactive
Amer1	2	59.9	49.5	inactive
Amer1	3	100	84.3	inactive
Atg9a	1	117	90.2	inactive
Atg9a	2	38.4	45.4	inactive
Atg9a	3	67.8	79	inactive
Tmem63b	1	101	70.4	inactive
Tmem63b	2	78.1	63.9	inactive
Tmem63b	3	106	88.4	inactive
Ncmap	1	84.5	85	inactive
Ncmap	2	53.9	51.6	inactive
Ncmap	3	95.7	95.8	inactive
Itpa	1	65.1	38.9	inactive
Itpa	2	74.5	72.4	inactive
Itpa	3	60.6	64.2	inactive
Rhag	1	89.7	97.4	inactive
Rhag	2	60.3	79.7	inactive
Rhag	3	86.1	94.1	inactive

A stretch of the results above:
gene	reagent	GFP, % of control	viability (ATP), % of control	activity call
Acaa1a	3	114	118	inactive
Adamts8	1	75.5	94.9	inactive
Adamts8	2	36	43	inactive
Adamts8	3	89.5	76	inactive
Unc5a	1	55.7	56.8	inactive
Unc5a	2	92.4	47.7	inactive
Unc5a	3	67	126	inactive
Decr1	1	75.3	93.3	inactive
Decr1	2	75.7	51.5	inactive
Decr1	3	61.3	60.2	inactive
